Experimental findings from publication doi:10.1101/2025.05.02.651838 are described below.

Results are given in words; binding and its absence hold for the method and conditions named. Binding seen in cells or lysates may run through a third protein. Some binding calls cover weakened binding; strength is not graded here. For part of these data: Sequences can lack the tags named with a protein.

For one assay, the target named is Flag-PP4R3B (UniProt Q5MIZ7). The assay can be described thus: co-IP.
The target in another assay is T1, C-Flag-PP4R3A (UniProt Q6IN85).
T1 sequence: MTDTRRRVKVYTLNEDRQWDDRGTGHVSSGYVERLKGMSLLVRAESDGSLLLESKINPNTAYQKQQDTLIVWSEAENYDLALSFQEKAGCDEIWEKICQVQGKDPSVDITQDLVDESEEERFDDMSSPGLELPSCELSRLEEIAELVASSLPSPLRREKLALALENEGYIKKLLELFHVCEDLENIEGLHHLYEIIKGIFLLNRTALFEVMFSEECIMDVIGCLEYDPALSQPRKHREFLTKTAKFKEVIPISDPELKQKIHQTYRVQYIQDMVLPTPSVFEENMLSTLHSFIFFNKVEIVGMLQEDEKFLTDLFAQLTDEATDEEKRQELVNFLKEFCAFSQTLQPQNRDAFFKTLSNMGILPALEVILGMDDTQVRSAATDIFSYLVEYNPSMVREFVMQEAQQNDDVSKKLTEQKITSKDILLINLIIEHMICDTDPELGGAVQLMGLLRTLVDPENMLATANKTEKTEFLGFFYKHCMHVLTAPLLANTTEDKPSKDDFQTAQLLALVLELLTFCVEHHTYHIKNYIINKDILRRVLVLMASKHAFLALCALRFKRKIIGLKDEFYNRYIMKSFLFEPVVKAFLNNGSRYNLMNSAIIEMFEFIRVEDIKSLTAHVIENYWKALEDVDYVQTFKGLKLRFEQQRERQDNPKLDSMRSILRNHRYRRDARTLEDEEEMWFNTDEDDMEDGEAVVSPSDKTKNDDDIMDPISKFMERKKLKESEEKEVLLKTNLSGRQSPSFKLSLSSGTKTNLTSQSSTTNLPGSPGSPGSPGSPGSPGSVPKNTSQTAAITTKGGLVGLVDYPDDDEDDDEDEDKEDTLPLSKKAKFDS
The assay can be described thus: co-IP.

B1: PP4R2 (protein, UniProt Q9NY27 1-417)
chain: MDVERLQEALKDFEKRGKKEVCPVLDQFLCHVAKTGETMIQWSQFKGYFIFKLEKVMDDFRTSAPEPRGPPNPNVEYIPFDEMKERILKIVTGFNGIPFTIQRLCELLTDPRRNYTGTDKFLRGVEKNVMVVSCVYPSSEKNNSNSLNRMNGVMFPGNSPSYTERSNINGPGTPRPLNRPKVSLSAPMTTNGLPESTDSKEANLQQNEEKNHSDSSTSESEVSSVSPLKNKHPDEDAVEAEGHEVKRLRFDKEGEVRETASQTTSSEISSVMVGETEASSSSQDKDKDSRCTRQHCTEEDEEEDEEEEEESFMTSREMIPERKNQEKESDDALTVNEETSEENNQMEESDVSQAEKDLLHSEGSENEGPVSSSSSDCRETEELVGSNSSKTGEILSESSMENDDEATEVTDEPMEQD
For the molecule B1, the binding entry with Flag-PP4R3B and with C-Flag-PP4R3A was “binds” each time.

B2: PP4C (the catalytic subunit of protein phosphatase 4) (protein, UniProt P60510 1-307)
chain: MAEISDLDRQIEQLRRCELIKESEVKALCAKAREILVEESNVQRVDSPVTVCGDIHGQFYDLKELFRVGGDVPETNYLFMGDFVDRGFYSVETFLLLLALKVRYPDRITLIRGNHESRQITQVYGFYDECLRKYGSVTVWRYCTEIFDYLSLSAIIDGKIFCVHGGLSPSIQTLDQIRTIDRKQEVPHDGPMCDLLWSDPEDTTGWGVSPRGAGYLFGSDVVAQFNAANDIDMICRAHQLVMEGYKWHFNETVLTVWSAPNYCYRCGNVAAILELDEHLQKDFIIFEAAPQETRGIPSKKPVADYFL
Consider B2, for which the binding result in the assay with Flag-PP4R3B is “binds”.
